# Reference: the supplement of paper PMC8256030
# Several values for one entry are separate records, joined by “and”; a condition that tells them apart may be missing. Equal entries are not always repeated. Some of the results follow. This data set is noisy: repeats of one test often differ as much as different tests do.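 HEK293T cells were given each compound shortly before transfection with a reporter in which red mCherry is followed by the SARS-CoV-2 frameshift element and then GFP in the −1 frame, so GFP appears only after frameshifting.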
# Test system: HEK293T
# Test: percent viability (nuclei count) relative to control; higher = more viable cells
# Settings: 10 µM; 24 h
row,Structure (SMILES),percent viability
1,O=C(O)c1ccccc1NCCc1ccccc1 [enfenamic acid],226%
2,COc1ccc2cc3[n+](cc2c1OC)CCc1cc2c(cc1-3)OCO2,307%
3,Cc1ccsc1/C=C/C1=NCCCN1C [morantel],342%
4,CC(C)(C)CC(C)(C)c1cc(Cc2cc(C(C)(C)CC(C)(C)C)cc(-n3nc4ccccc4n3)c2O)c(O)c(-n2nc3ccccc3n2)c1 [bisoctrizole],137%
5,NS(=O)(=O)c1cc2c(cc1Cl)NCNS2(=O)=O [hydrochlorothiazide],172%
6,CCN(CC)CC(=O)Nc1c(C)cccc1C(=O)OC [tolycaine],65%
7,COc1ccnc(C[S+]([O-])c2nc3cc(OC(F)F)ccc3[nH]2)c1OC (stereo not drawn),272%
8,CCCCCOc1ccc(-c2ccc(-c3ccc(C(=O)N[C@H]4C[C@@H](O)[C@@H](O)NC(=O)[C@@H]5[C@@H](O)[C@@H](C)CN5C(=O)[C@H]([C@@H](C)O)NC(=O)[C@H]([C@H](O)[C@@H](O)c5ccc(O)cc5)NC(=O)[C@@H]5C[C@@H](O)CN5C(=O)[C@H]([C@@H](C)O)NC4=O)cc3)cc2)cc1 [Eraxis],203%
9,OC1(c2ccc(Cl)c(C(F)(F)F)c2)CCN(CCCC(c2ccc(F)cc2)c2ccc(F)cc2)CC1 [penfluridol],219%
10,C=CS(=O)(=O)O [apolate],109%
11,CC(NN)c1ccccc1 (stereo not drawn) [mebanazine],125%
12,O=C(O)CCC(=O)c1ccc(-c2ccccc2)cc1 [fenbufen],222% and 125%
13,CC(NCCCCc1ccccc1)C(O)c1ccc2c(c1)CCS2 (stereo not drawn) [tibalosin],244%

# As entered above:
# Value of Cc1ccsc1/C=C/C1=NCCCN1C [morantel] under percent viability: 342%
# Value of OC1(c2ccc(Cl)c(C(F)(F)F)c2)CCN(CCCC(c2ccc(F)cc2)c2ccc(F)cc2)CC1 [penfluridol] under percent viability: 219%
